These are yes or no findings as the source states them, for the method shown. Some results given as binding are weak or reduced against the parent protein; the word gives no strength. Sequences can lack the tags named with a protein. One block for each binder: values may come before it.
Assays:
[1] = target: T1, GFP-LacI-CENP-C_(M1407E/L1357E) (Drosophila melanogaster), Q9VHP9; experiment: LacO/LacI tethering assay in cells; settings: remark: other sources report otherwise
T1 chain: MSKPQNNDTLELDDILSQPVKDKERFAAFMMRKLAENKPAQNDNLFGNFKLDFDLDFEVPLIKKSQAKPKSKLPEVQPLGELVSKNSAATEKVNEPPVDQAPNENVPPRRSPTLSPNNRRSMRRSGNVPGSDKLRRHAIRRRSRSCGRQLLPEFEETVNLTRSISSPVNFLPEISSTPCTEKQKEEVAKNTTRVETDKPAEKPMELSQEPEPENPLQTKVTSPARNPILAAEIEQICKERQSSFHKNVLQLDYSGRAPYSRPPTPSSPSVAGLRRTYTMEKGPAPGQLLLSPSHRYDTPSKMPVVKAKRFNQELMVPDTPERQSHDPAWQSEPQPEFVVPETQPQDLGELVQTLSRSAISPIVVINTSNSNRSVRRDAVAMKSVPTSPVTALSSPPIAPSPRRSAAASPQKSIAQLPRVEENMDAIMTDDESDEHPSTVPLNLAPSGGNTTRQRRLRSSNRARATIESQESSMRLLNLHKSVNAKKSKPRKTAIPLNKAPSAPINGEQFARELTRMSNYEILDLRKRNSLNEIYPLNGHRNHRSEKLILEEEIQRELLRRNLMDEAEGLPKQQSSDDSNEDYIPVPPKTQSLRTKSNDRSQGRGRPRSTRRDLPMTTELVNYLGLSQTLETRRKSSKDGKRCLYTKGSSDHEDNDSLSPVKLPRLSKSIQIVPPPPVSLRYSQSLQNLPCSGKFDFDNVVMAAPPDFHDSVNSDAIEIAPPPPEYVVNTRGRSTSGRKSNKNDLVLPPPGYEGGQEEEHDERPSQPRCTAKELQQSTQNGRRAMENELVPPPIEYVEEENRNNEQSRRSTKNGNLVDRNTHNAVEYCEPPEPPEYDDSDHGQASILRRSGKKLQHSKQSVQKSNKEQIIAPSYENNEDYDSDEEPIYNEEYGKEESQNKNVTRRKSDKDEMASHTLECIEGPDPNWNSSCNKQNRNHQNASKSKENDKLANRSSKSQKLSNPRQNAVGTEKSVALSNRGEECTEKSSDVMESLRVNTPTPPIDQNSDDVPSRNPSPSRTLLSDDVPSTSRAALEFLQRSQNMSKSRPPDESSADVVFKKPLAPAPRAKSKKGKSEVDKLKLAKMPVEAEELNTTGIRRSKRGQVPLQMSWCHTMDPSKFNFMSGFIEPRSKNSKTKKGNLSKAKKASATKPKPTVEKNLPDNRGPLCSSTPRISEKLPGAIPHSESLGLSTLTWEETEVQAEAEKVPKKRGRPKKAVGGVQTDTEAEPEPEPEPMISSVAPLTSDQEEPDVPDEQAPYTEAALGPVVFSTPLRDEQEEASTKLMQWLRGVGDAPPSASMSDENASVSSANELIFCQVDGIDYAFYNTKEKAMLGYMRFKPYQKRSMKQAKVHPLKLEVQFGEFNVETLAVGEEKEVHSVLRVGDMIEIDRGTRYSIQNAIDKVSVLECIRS

[2] = target: T2, His-CENP-C_(1264-1411 L1357E/M1407E) (Drosophila melanogaster) (UniProt Q9VHP9); experiment: SEC-MALS
T2 sequence: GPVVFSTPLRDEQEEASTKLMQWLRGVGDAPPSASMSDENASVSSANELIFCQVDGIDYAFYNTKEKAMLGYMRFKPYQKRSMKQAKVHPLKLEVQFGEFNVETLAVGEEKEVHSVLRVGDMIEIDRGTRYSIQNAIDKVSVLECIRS

binding [1]: binds
B1: CAL1-V5, Q9VEN2 1-979 (protein)
chain: MANAVVDEETLEAMVYERSKAWSSKMADFASLEDGMEIDVAEFDNLFHGEDEDPDLDDVAKEAVEDNVPDEAKLEMGHINATSVTELTLILCANEDNEAKAEIEEILNQTVPVVEEHKRKWREAGLDRILDTFDEKQIEHHVGRWMRRHNSVYLEASPPKYLPPHHNSISDESDESMHSIDTARYIQQSRRRNAHMTNKNMTTIKMYRKHSHKRDELRAKYAYGDEQEHRHHMQAVLLRRRERERQLAYLASTPMQCVYSSGHHMRRKNLRKRRINSWMFDSASSSEEDTSFGGCDCHSCRRHYALSRSVYQSCPYGRGQREYHHRQMASRTMHTMRRQHTFDMEMDLRPRLPENECSCCNSDRLCSNVIHIANSSTEEWVVENRSNHLTQETQEKTRKQKHQPMDARKVSHQPVCSKGHEQKPLSSKATSVSKLVLSKEKYMQMFDSESSDEDNALAKKGLLCCSDKKKGMTFPTPNAAGKITHPTSSAKKAIRKEARPNGLAQIQEEGPTATNSPIESTYLPVAHMKSVSIDGSSGTSATFESPAKKAPKRGIRETSPLNGNELQQLISTIPIADEKASSLMEKVDNCIGRESFDDRNKDFMHMENSSTKTAVEKSTKQKRVSGKKSEIPKSIITNNEILEKNSTETLSEKQVAAKAKKQSVRKTGATGKPSTSRLKKSEKTKTTSSVTSTSKLEQVREEESDVSSEVLAKPKPQCSTTASILKQGGDGASNSEDDLQIALAMSKATYKEEQQKRKKTKREPSNKQPQSPAEKSMTVFNNQSVACNSTALANDTACYRVLPKRRGVKRAAAVSTTEEKTATNSSSSPTSSLEEMGSPTGGDPDCTVVTSTTGCEPPASERQEIPATIKITKRGILLHSPSAPEGASFTLTEQGLGKIIGERWARKYLKYHIGSRSFDSRHSVYYQPTPQLAAALSAPQDAQNIGNISGSSASDDDIFEQINRYGTVYSILENNSGDK

binding [2]: no binding
B2: His-CENP-C_(1264-1411 L1357E/M1407E) (domain or fragment, UniProt Q9VHP9 1264-1411)
chain: T2 sequence

Reference: doi:10.1101/723213
